# Reference: PubChem BioAssay AID256 (DTP/NCI, 2004)
# The list is a part of this screen's results and no random one: it is rich in T/C values a quarter to a half above the control, in often repeated tests (any T/C) and in doses without a T/C. Other doses and runs of a compound stand elsewhere. T/C is the treated group as % of the vehicle group. Some entries give survivors of the animals treated and no T/C: the source holds a T/C of zero for them, seemingly a mark for toxic or unscored doses. Some doses without a T/C left all or most animals alive at the check, yet need not have been tolerated: the source hardly ever lists a survival T/C far under the control, and the zero likely stands for such cases as well. Counts of survivors are from the toxicity check (mostly the fifth day) where no day follows; animals may have died later. Schedule codes are those of the source, read here as Q, the interval in days (D) or hours (H), X, the number of doses. For survival time, the PubChem record calls one and a half times the control and up active, and a quarter to a half above the control has no call in these data; cut-offs in other NCI protocols can differ. Some T/C values carry the count of animals alive at the toxicity check (mostly the fifth day); where none is given, no animal had died by that day. Some entries were tested several times; their values stand side by side, smallest first. Some schedule codes hold Z or #, which are not explained here.
# Tested on: CD2F1 mice, L1210 leukemia ip, survival T/C
# Test: NCI In Vivo Anticancer Drug Screen. Data for tumor model L1210 Leukemia (intraperitoneal) in CD2F1 (CDF1) mice
# Details: higher T/C = longer survival
# Outline: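 Compound-dosed mice with transplantable tumor versus matched vehicle controls; endpoint ratio T/C reported.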
# [1] = T/C endpoint: mean survival time, dose: 400.0 mg/kg/injection, schedule: Q01DX009 (ip), vehicle: saline with Tween-80
# [2] = T/C endpoint: mean survival time, dose: 400.0 mg/kg/injection, schedule: Q04DX002 (ip), vehicle: saline with Tween-80
# [3] = T/C endpoint: mean survival time, dose: 100.0 mg/kg/injection, schedule: Q04DX003 (ip), vehicle: saline with Tween-80
# [4] = T/C endpoint: mean survival time, dose: 200.0 mg/kg/injection, schedule: Q04DX003 (ip), vehicle: saline with Tween-80
# [5] = T/C endpoint: mean survival time, dose: 400.0 mg/kg/injection, schedule: Q04DX003 (ip), vehicle: saline with Tween-80
# [6] = T/C endpoint: mean survival time, dose: 25.0 mg/kg/injection, schedule: Q01DX009 (ip), vehicle: saline
# [7] = T/C endpoint: mean survival time, dose: 150.0 mg/kg/injection, schedule: Q01DX009 (ip), vehicle: Klucel (hydroxypropylcellulose) (HPC)
# [8] = T/C endpoint: mean survival time, dose: 200.0 mg/kg/injection, schedule: Q01DX009 (ip), vehicle: saline
structure (smiles),measurement,setting,value
c1ccc2c(c1)Cc1c-2nc2ccccc2c1N1CCOCC1,T/C,[1],139 % of control
O=C(c1ccc(-c2ccccc2)cc1)C1C(c2ccccc2)N1C1CCCCC1 (stereo not given),survivor count,"T/C endpoint: mean survival time, dose: 200.0 mg/kg/injection, schedule: Q01DX009 (ip), vehicle: other",3 of 6
CC(=O)[O][Hg][c]1c(C)c(C)[c]([Hg][O]C(C)=O)c(C)c1C,survivor count,"T/C endpoint: mean survival time, dose: 100.0 mg/kg/injection, schedule: Q04DX002 (ip), vehicle: saline with Tween-80",0 of 3
CCC(c1ccc(O)c(CN(CC)CC)c1)C(CC)c1ccc(O)c(CN(CC)CC)c1 (stereo not given),survivor count,[2],0 of 3
C/C(=N/N)c1ccc(Br)cc1,survivor count,[3],0 of 6
same,survivor count,"T/C endpoint: mean survival time, dose: 150.0 mg/kg/injection, schedule: Q04DX003 (ip), vehicle: saline with Tween-80",0 of 6
same,survivor count,[4],0 of 6
same,survivor count,"T/C endpoint: mean survival time, dose: 225.0 mg/kg/injection, schedule: Q04DX003 (ip), vehicle: saline with Tween-80",0 of 6
same,survivor count,"T/C endpoint: mean survival time, dose: 335.0 mg/kg/injection, schedule: Q04DX003 (ip), vehicle: saline with Tween-80",0 of 6
same,survivor count,[5],0 of 6
O[C@@H](c1ccccc1)[C@@H](c1ccccc1)N1CCCCC1,survivor count,"T/C endpoint: mean survival time, dose: 400.0 mg/kg/injection, schedule: Q01DX001 (ip), vehicle: saline",0 of 6
C=CCN(CC=C)C(=O)OCC,survivor count,[1],5 of 6
CC(CN(C)C)CN1c2ccccc2Sc2ccc(C(F)(F)F)cc21 (stereo not given),survivor count,[6],0 of 6
same,survivor count,"T/C endpoint: mean survival time, dose: 100.0 mg/kg/injection, schedule: Q04DX003 (ip), vehicle: saline",0 of 6
same,survivor count,"T/C endpoint: mean survival time, dose: 200.0 mg/kg/injection, schedule: Q04DX003 (ip), vehicle: saline",0 of 6
same,survivor count,"T/C endpoint: mean survival time, dose: 400.0 mg/kg/injection, schedule: Q04DX003 (ip), vehicle: saline",0 of 6
O=C(O)c1cccnc1[N+](=O)[O-],survivor count,"T/C endpoint: mean survival time, dose: 400.0 mg/kg/injection, schedule: Q01DX001 (ip), vehicle: saline with Tween-80",1 of 6
CN(C)N=Nc1ccc(S(N)(=O)=O)cc1C(N)=O,T/C,"T/C endpoint: mean survival time, dose: 75.0 mg/kg/injection, schedule: Q01DX009 (ip), vehicle: Klucel (hydroxypropylcellulose) (HPC)",135 % of control
same,T/C,[7],132 and 146 % of control
C/C(=C\C(=O)c1ccccc1)OB(F)F,survivor count,[1],3 of 6
N#Cc1[nH]nc2ncnc(N)c12,survivor count,"T/C endpoint: mean survival time, dose: 100.0 mg/kg/injection, schedule: Q01DX009 (ip), vehicle: saline with Tween-80",6 of 6
same,survivor count,"T/C endpoint: mean survival time, dose: 200.0 mg/kg/injection, schedule: Q01DX009 (ip), vehicle: saline with Tween-80",2 of 6
same,survivor count,[1],1 of 6
O=C1c2cc([N+](=O)[O-])ccc2-c2cc(Br)ccc21,survivor count,[5],0 of 6
CC1CN1C(=O)OCCOC(=O)N1CC1C (stereo not given),T/C,"T/C endpoint: mean survival time, dose: 675.0 mg/kg/injection, schedule: Q01DX Z (ip), vehicle: saline",149 % of control
NNC(=O)c1cccc(N)c1,survivor count,[4],0 of 6
same,survivor count,[5],0 of 6
CN(C)N=Nc1ccccc1,T/C,"T/C endpoint: mean survival time, dose: 18.75 mg/kg/injection, schedule: Q01DX009 (ip), vehicle: Klucel (hydroxypropylcellulose) (HPC)",148 % of control
same,survivor count,[7],1 of 6
same,survivor count,"T/C endpoint: mean survival time, dose: 300.0 mg/kg/injection, schedule: Q01DX009 (ip), vehicle: Klucel (hydroxypropylcellulose) (HPC)",0 of 6
Cc1nc2ccccc2nc1CBr,survivor count,"T/C endpoint: mean survival time, dose: 25.0 mg/kg/injection, schedule: Q01DX009 (ip), vehicle: acetone",4 of 6
same,survivor count,"T/C endpoint: mean survival time, dose: 50.0 mg/kg/injection, schedule: Q01DX009 (ip), vehicle: acetone",3 of 6
O=C(O)c1cc2ccccc2cn1,survivor count,[8],0 of 6
Clc1cc(CBr)c(CBr)cc1Cl,survivor count,[3],3 of 6
same,survivor count,[4],2 of 6
same,survivor count,[5],0 of 6
Cc1cc(Br)c[nH]c1=O,survivor count,[1],3 of 6
CCCCN1C(=O)N(c2ccc(OCC)cc2)C2N(CCCC)C1C(C)(C)C2(C)C (stereo not given),survivor count,"T/C endpoint: mean survival time, dose: 200.0 mg/kg/injection, schedule: Q04DX002 (ip), vehicle: saline with Tween-80",0 of 3
same,survivor count,[2],0 of 3
CCOC(=O)c1ccc(N2C(=O)C=CC2=O)cc1,survivor count,[6],0 of 3
same,survivor count,"T/C endpoint: mean survival time, dose: 50.0 mg/kg/injection, schedule: Q01DX009 (ip), vehicle: saline",0 of 3
same,survivor count,"T/C endpoint: mean survival time, dose: 100.0 mg/kg/injection, schedule: Q01DX009 (ip), vehicle: saline",0 of 3
same,survivor count,[8],0 of 3
CC(C)OC(=O)c1cc([N+](=O)[O-])c(Sc2ncnc3nc[nH]c23)c([N+](=O)[O-])c1,T/C,"T/C endpoint: mean survival time, dose: 9.9 mg/kg/injection, schedule: Q01DX005 (ip), vehicle: other",137 % of control [5 of 6 alive]
same,T/C,"T/C endpoint: mean survival time, dose: 10.0 mg/kg/injection, schedule: Q01DX005 (ip), vehicle: other",129 % of control
same,T/C,"T/C endpoint: mean survival time, dose: 14.8 mg/kg/injection, schedule: Q01DX005 (ip), vehicle: other",125 and 143 % of control
same,T/C,"T/C endpoint: mean survival time, dose: 22.2 mg/kg/injection, schedule: Q01DX005 (ip), vehicle: other",129 and 142 % of control [5 of 6 alive]
same,T/C,"T/C endpoint: mean survival time, dose: 33.4 mg/kg/injection, schedule: Q01DX005 (ip), vehicle: other",129 % of control
COC1=C(C)C(=O)c2c(c(COC(N)=O)c3n2CC2C3N2C)C1=O (stereo not given),T/C,"T/C endpoint: mean survival time, dose: 2.9 mg/kg/injection, schedule: Q01DX001 (ip), vehicle: saline",126 % of control [2 of 2 alive]
same,T/C,"T/C endpoint: mean survival time, dose: 4.5 mg/kg/injection, schedule: Q01DX001 (ip), vehicle: saline",132 % of control
CC(=O)Oc1c(C)ncc(C=O)c1C,survivor count,"T/C endpoint: mean survival time, dose: 300.0 mg/kg/injection, schedule: Q01DX001 (ip), vehicle: other",0 of 6
CCN(CC)c1cc(C(=O)O)cc(N(CC)CC)n1,T/C,"T/C endpoint: median survival time, dose: 25.0 mg/kg/injection, schedule: Q01DX009 (ip), vehicle: other",128 % of control
same,survivor count,"T/C endpoint: median survival time, dose: 200.0 mg/kg/injection, schedule: Q01DX005 (ip), vehicle: acid diluted with saline",1 of 6
same,survivor count,"T/C endpoint: median survival time, dose: 400.0 mg/kg/injection, schedule: Q01DX005 (ip), vehicle: acid diluted with saline",0 of 6
O=C(O)C1C2CCCCC2=C2CCCCC2C1C(=O)O (stereo not given),survivor count,[1],0 of 6
Fc1c(F)c(F)[c]([Sn]([c]2ccccc2)([c]2ccccc2)[c]2ccccc2)c(F)c1F,survivor count,"T/C endpoint: mean survival time, dose: 50.0 mg/kg/injection, schedule: Q04DX003 (ip), vehicle: saline with Tween-80",6 of 6
same,survivor count,[3],3 of 6
same,survivor count,[4],2 of 6
same,survivor count,[5],5 of 6
O=CC(CO)OC(C=O)n1cnc2c(=O)[nH]c(=O)[nH]c21 (stereo not given),survivor count,"T/C endpoint: mean survival time, dose: 200.0 mg/kg/injection, schedule: Q01DX005 (ip), vehicle: water",4 of 6
CCCCCCCC1C(=O)OC2CC3C(C)=CC(=O)C(O)C3(C)C3C4(O)OCC23C1C(C)C4O (stereo not given),survivor count,"T/C endpoint: median survival time, dose: 40.0 mg/kg/injection, schedule: Q01DX005 (ip), vehicle: Klucel (hydroxypropylcellulose) (HPC)",2 of 6
O=C(CCC(=O)NO)NO,survivor count,"T/C endpoint: mean survival time, dose: 400.0 mg/kg/injection, schedule: Q04DX002 (ip), vehicle: saline",3 of 3
CCOC(=O)N1CCc2nc3ccccc3cc21,survivor count,"T/C endpoint: mean survival time, dose: 400.0 mg/kg/injection, schedule: Q01DX001 (ip), vehicle: other",3 of 6
Cc1cc(Cl)c(OCC(=O)O)c(Cl)c1,survivor count,[5],5 of 6
O=C(O)/C=C/C(=O)Nc1ccc(N=Nc2ccccc2)cc1,survivor count,[5],3 of 6
